Article PMC9095961
No constants are given. Whether binding was seen depends on the method and setting. In cells and extracts the contact can be indirect. These calls come from enrichment with a bait or labelling near it, and not all partners need be listed.

By UniProt entry, the sequences of proteins in these tests, tags left out. Where a name states a change or a piece, a line headed by the entry shows the natural chain unless it says otherwise.
UniProt Q93009: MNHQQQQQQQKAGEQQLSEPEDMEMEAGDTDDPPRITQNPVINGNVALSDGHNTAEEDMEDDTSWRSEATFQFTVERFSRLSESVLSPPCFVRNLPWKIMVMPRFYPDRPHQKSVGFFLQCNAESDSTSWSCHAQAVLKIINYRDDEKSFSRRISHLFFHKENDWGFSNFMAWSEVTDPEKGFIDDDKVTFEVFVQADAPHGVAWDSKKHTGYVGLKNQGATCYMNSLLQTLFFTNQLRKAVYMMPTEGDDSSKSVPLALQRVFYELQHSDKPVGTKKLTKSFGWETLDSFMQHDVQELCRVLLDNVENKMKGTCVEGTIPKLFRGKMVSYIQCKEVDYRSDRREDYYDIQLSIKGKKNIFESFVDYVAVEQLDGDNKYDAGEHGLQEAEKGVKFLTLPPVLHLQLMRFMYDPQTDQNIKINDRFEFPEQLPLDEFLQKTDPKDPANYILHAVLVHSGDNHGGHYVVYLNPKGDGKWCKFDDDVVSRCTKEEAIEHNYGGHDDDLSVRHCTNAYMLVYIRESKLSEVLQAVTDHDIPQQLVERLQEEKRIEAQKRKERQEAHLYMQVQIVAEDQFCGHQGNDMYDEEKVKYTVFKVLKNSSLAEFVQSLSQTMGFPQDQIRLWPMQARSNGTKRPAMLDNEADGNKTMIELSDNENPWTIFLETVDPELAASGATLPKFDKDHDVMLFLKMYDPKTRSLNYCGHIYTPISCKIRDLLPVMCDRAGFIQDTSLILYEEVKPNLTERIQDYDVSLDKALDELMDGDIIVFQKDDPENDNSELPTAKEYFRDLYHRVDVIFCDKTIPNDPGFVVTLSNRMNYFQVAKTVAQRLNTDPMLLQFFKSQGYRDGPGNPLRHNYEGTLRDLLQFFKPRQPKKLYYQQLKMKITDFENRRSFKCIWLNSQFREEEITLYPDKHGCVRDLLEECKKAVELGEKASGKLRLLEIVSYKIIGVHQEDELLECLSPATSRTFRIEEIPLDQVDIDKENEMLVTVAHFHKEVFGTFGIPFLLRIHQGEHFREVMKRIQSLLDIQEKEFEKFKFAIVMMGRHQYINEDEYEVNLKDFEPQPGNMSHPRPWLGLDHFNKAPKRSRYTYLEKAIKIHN
UniProt Q79FD4: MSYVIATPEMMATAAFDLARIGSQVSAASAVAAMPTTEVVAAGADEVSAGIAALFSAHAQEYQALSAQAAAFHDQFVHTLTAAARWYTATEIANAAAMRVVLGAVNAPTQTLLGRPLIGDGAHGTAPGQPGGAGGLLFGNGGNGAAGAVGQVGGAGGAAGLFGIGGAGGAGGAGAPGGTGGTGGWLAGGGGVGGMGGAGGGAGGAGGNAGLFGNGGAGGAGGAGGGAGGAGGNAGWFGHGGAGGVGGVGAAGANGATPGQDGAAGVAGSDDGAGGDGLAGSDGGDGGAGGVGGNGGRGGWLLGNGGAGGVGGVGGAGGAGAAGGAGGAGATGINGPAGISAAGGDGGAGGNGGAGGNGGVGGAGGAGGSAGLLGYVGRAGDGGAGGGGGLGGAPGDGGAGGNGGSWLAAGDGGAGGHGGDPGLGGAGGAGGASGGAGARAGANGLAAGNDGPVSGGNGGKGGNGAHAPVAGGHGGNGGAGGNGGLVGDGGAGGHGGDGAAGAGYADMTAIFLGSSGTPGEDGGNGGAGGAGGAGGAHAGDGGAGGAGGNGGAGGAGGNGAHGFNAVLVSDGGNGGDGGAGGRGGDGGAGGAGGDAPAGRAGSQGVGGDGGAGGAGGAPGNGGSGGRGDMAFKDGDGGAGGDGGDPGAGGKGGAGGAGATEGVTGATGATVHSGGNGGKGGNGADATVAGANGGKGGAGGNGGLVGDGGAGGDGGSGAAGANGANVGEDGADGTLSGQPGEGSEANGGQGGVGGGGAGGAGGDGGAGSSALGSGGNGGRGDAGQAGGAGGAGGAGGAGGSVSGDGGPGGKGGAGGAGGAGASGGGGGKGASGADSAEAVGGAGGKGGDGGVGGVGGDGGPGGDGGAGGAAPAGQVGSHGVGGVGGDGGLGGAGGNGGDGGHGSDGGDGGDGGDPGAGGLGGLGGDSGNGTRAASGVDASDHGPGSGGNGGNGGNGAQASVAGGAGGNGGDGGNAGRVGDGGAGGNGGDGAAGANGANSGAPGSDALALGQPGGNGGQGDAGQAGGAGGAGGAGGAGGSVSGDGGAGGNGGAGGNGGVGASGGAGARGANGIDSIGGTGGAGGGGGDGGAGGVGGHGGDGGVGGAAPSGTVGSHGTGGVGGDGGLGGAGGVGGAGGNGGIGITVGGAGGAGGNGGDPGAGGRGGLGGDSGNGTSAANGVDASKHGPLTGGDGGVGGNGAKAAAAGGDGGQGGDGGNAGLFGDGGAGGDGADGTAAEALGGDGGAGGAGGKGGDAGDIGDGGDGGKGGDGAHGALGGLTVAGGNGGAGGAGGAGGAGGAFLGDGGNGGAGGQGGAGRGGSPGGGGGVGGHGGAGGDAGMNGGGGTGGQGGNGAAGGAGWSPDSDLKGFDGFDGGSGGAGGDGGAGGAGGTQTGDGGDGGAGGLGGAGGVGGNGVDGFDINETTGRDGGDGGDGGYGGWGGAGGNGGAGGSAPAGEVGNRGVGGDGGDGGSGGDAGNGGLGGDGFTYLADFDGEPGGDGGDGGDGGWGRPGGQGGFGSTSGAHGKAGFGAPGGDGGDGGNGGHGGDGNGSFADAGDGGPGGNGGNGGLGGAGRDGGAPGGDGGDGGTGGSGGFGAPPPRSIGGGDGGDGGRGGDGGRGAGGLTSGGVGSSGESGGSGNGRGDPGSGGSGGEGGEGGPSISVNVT
UniProt O53348: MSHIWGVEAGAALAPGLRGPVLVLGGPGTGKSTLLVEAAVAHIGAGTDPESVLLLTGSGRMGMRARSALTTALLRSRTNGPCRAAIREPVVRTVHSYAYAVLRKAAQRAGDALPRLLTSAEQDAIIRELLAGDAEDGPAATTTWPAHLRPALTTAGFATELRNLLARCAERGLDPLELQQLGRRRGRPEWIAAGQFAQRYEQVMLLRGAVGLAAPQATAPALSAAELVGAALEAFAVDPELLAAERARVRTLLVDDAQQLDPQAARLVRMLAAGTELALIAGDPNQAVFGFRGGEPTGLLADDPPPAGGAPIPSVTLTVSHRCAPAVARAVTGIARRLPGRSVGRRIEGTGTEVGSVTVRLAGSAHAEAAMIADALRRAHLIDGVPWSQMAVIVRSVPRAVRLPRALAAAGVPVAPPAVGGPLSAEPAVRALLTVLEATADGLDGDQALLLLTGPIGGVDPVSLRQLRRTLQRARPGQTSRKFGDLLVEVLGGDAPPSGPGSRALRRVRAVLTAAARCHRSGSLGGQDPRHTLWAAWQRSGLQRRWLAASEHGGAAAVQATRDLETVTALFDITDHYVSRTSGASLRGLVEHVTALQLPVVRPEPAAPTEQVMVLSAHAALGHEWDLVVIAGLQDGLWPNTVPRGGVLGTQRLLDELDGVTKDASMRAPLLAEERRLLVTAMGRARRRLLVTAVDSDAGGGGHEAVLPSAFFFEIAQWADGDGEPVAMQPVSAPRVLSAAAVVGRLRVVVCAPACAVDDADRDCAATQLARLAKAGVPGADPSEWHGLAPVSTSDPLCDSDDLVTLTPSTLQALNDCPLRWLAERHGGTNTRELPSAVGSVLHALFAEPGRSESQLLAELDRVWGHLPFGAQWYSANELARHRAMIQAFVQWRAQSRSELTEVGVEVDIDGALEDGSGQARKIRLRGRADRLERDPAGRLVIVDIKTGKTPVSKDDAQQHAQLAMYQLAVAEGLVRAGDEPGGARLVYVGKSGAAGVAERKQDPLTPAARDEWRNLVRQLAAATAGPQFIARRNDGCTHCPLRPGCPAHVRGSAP

B1: Rv2967c (pyruvate carboxylase, pca) (enzyme, UniProt A5U6X6 1-1127)
chain: MFSKVLVANRGEIAIRAFRAAYELGVGTVAVYPYEDRNSQHRLKADESYQIGDIGHPVHAYLSVDEIVATARRAGADAIYPGYGFLSENPDLAAACAAAGISFVGPSAEVLELAGNKSRAIAAAREAGLPVLMSSAPSASVDELLSVAAGMPFPLFVKAVAGGGGRGMRRVGDIAALPEAIEAASREAESAFGDPTVYLEQAVINPRHIEVQILADNLGDVIHLYERDCSVQRRHQKVIELAPAPHLDAELRYKMCVDAVAFARHIGYSCAGTVEFLLDERGEYVFIEMNPRVQVEHTVTEEITDVDLVASQLRIAAGETLEQLGLRQEDIAPHGAALQCRITTEDPANGFRPDTGRISALRTAGGAGVRLDGSTNLGAEISPYFDSMLVKLTCRGRDLPTAVSRARRAIAEFRIRGVSTNIPFLQAVLDDPDFRAGRVTTSFIDERPQLLTARASADRGTKILNFLADVTVNNPYGSRPSTIYPDDKLPDLDLRAAPPAGSKQRLVKLGPEGFARWLRESAAVGVTDTTFRDAHQSLLATRVRTSGLSRVAPYLARTMPQLLSVECWGGATYDVALRFLKEDPWERLATLRAAMPNICLQMLLRGRNTVGYTPYPEIVTSAFVQEATATGIDIFRIFDALNNIESMRPAIDAVRETGSAIAEVAMCYTGDLTDPGEQLYTLDYYLKLAEQIVDAGAHVLAIKDMAGLLRPPAAQRLVSALRSRFDLPVHLHTHDTPGGQLASYVAAWHAGADAVDGAAAPLAGTTSQPALSSIVAAAAHTEYDTGLSLSAVCALEPYWEALRKVYAPFESGLPGPTGRVYHHEIPGGQLSNLRQQAIALGLGDRFEEIEEAYAGADRVLGRLVKVTPTSKVVGDLALALVGAGVSADEFASDPARFGIPESVLGFLRGELGDPPGGWPEPLRTAALAGRGAARPTAQLAADDEIALSSVGAKRQATLNRLLFPSPTKEFNEHREAYGDTSQLSANQFFYGLRQGEEHRVKLERGVELLIGLEAISEPDERGMRTVMCILNGQLRPVLVRDRSIASAVPAAEKADRGNPGHIAAPFAGVVTVGVCVGERVGAGQTIATIEAMKMEAPITAPVAGTVERVAVSDTAQVEGGDLLVVVS

Biological target: recombinant HAUSP (UniProt Q93009)
Assay: affinity purification with mass spectrometry; only the target purified

**Q.** With “Rv2490c (PE_PGRS43) (from UniProt Q79FD4 1-1660)” as the molecule, how does the binding read?
**A.** binds

**Q.** How did the binding turn out when “Rv3202c (DNA helicase) (from UniProt O53348) (enzyme)” was run?
**A.** binds

**Q.** How did the binding turn out when B1 was run?
**A.** binds
